Assay results as given in publication PMC13538393.
Results are given in words; binding and its absence hold for the method and conditions named. Binding seen in cells or lysates may run through a third protein. Here binding means that the protein was enriched with, or labelled near, the bait; the list need not be complete. Where a sequence is shown, tags or fusion partners need not be part of it. Each block holds one binder with its values, some of them ahead of it.

Chains of the proteins cited; added tags and fusions are not shown.
UniProt Q96RR4: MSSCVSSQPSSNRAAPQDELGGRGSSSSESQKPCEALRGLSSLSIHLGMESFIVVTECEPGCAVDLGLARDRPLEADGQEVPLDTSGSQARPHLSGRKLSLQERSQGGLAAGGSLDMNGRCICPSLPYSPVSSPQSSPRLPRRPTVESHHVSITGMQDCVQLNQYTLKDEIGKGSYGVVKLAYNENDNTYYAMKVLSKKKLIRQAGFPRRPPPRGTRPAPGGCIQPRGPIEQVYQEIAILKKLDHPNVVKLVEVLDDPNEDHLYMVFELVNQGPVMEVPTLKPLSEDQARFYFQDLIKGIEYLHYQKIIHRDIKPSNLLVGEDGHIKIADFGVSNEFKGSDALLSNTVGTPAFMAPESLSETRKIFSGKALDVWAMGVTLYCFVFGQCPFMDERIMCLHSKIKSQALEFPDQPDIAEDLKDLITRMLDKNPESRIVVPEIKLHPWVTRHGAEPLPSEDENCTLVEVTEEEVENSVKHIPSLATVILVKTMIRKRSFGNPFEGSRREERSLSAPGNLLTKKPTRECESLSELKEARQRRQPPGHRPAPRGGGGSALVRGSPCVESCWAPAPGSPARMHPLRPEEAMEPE

How the values were obtained:
[1] = target: T1, Checkpoint kinase 1, wild type, N-terminal Strep-HA tag (human) (UniProt O14757); test: affinity purification with mass spectrometry; N-terminal Strep-HA-tagged bait induced with doxycycline (24 h) in HEK293 cells; cells treated 4 h with 1 µM inhibitor (SGC-CAMKK2-1, SGC-CAMKK2-1N or rabusertib) or 0.01% DMSO; native lysis in HNN buffer (50 mM HEPES pH 8.0, 150 mM NaCl, 50 mM NaF) with 0.5% IGEPAL; StrepTactin Sepharose, biotin elution; interactors scored against EGFP pulldowns (modified D-score > 1.425)
T1 sequence: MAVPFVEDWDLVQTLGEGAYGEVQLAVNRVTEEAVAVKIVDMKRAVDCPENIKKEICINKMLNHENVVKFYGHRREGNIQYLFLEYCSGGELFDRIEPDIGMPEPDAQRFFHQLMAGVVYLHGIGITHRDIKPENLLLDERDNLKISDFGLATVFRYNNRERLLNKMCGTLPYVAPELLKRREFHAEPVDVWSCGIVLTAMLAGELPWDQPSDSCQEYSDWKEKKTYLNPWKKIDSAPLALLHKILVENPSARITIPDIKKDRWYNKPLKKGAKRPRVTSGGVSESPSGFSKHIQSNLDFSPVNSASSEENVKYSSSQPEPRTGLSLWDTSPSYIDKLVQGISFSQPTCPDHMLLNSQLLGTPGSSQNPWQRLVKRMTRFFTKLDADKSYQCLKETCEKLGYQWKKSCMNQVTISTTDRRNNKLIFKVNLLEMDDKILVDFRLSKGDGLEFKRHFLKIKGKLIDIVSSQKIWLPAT

[2] = target: Calcium/calmodulin-dependent protein kinase kinase 2, wild type, N-terminal Strep-HA tag (human) (UniProt Q96RR4); test: as above
[3] = target: T2, Checkpoint kinase 1, wild type, N-terminal Strep-HA tag (human), O14757; test: affinity purification with mass spectrometry; N-terminal Strep-HA-tagged bait induced with doxycycline (24 h) in HEK293 cells; cells treated 4 h with 1 µM inhibitor (SGC-CAMKK2-1, SGC-CAMKK2-1N or rabusertib) or 0.01% DMSO; native lysis in HNN buffer (50 mM HEPES pH 8.0, 150 mM NaCl, 50 mM NaF) with 0.5% IGEPAL; StrepTactin Sepharose, biotin elution; interactors scored against EGFP pulldowns (modified D-score > …); conditions: remark: other sources report otherwise
T2 chain: T1 sequence

binding [1]: binds
B1: DNA replication licensing factor MCM6 (protein, UniProt Q14566 1-821)
chain: MDLAAAAEPGAGSQHLEVRDEVAEKCQKLFLDFLEEFQSSDGEIKYLQLAEELIRPERNTLVVSFVDLEQFNQQLSTTIQEEFYRVYPYLCRALKTFVKDRKEIPLAKDFYVAFQDLPTRHKIRELTSSRIGLLTRISGQVVRTHPVHPELVSGTFLCLDCQTVIRDVEQQFKYTQPNICRNPVCANRRRFLLDTNKSRFVDFQKVRIQETQAELPRGSIPRSLEVILRAEAVESAQAGDKCDFTGTLIVVPDVSKLSTPGARAETNSRVSGVDGYETEGIRGLRALGVRDLSYRLVFLACCVAPTNPRFGGKELRDEEQTAESIKNQMTVKEWEKVFEMSQDKNLYHNLCTSLFPTIHGNDEVKRGVLLMLFGGVPKTTGEGTSLRGDINVCIVGDPSTAKSQFLKHVEEFSPRAVYTSGKASSAAGLTAAVVRDEESHEFVIEAGALMLADNGVCCIDEFDKMDVRDQVAIHEAMEQQTISITKAGVKATLNARTSILAAANPISGHYDRSKSLKQNINLSAPIMSRFDLFFILVDECNEVTDYAIARRIVDLHSRIEESIDRVYSLDDIRRYLLFARQFKPKISKESEDFIVEQYKHLRQRDGSGVTKSSWRITVRQLESMIRLSEAMARMHCCDEVQPKHVKEAFRLLNKSIIRVETPDVNLDQEEEIQMEVDEGAGGINGHADSPAPVNGINGYNEDINQESAPKASLRLGFSEYCRISNLIVLHLRKVEEEEDESALKRSELVNWYLKEIESEIDSEEELINKKRIIEKVIHRLTHYDHVLIELTQAGLKGSTEGSESYEEDPYLVVNPNYLLED

binding [2]: binds
B3: Extended synaptotagmin-2 (protein, UniProt A0FGR8 1-921)
chain: MTANRDAALSSHRHPGCAQRPRTPTFASSSQRRSAFGFDDGNFPGLGERSHAPGSRLGARRRAKTARGLRGHRQRGAGAGLSRPGSARAPSPPRPGGPENPGGVLSVELPGLLAQLARSFALLLPVYALGYLGLSFSWVLLALALLAWCRRSRGLKALRLCRALALLEDEERVVRLGVRACDLPAWVHFPDTERAEWLNKTVKHMWPFICQFIEKLFRETIEPAVRGANTHLSTFSFTKVDVGQQPLRINGVKVYTENVDKRQIILDLQISFVGNCEIDLEIKRYFCRAGVKSIQIHGTMRVILEPLIGDMPLVGALSIFFLRKPLLEINWTGLTNLLDVPGLNGLSDTIILDIISNYLVLPNRITVPLVSEVQIAQLRFPVPKGVLRIHFIEAQDLQGKDTYLKGLVKGKSDPYGIIRVGNQIFQSRVIKENLSPKWNEVYEALVYEHPGQELEIELFDEDPDKDDFLGSLMIDLIEVEKERLLDEWFTLDEVPKGKLHLRLEWLTLMPNASNLDKVLTDIKADKDQANDGLSSALLILYLDSARNLPSGKKISSNPNPVVQMSVGHKAQESKIRYKTNEPVWEENFTFFIHNPKRQDLEVEVRDEQHQCSLGNLKVPLSQLLTSEDMTVSQRFQLSNSGPNSTIKMKIALRVLHLEKRERPPDHQHSAQVKRPSVSKEGRKTSIKSHMSGSPGPGGSNTAPSTPVIGGSDKPGMEEKAQPPEAGPQGLHDLGRSSSSLLASPGHISVKEPTPSIASDISLPIATQELRQRLRQLENGTTLGQSPLGQIQLTIRHSSQRNKLIVVVHACRNLIAFSEDGSDPYVRMYLLPDKRRSGRRKTHVSKKTLNPVFDQSFDFSVSLPEVQRRTLDVAVKNSGGFLSKDKGLLGKVLVALASEELAKGWTQWYDLTEDGTRPQAMT

binding [1]: binds
B6: DNA replication licensing factor MCM5 (protein, UniProt P33992 1-734)
chain: MSGFDDPGIFYSDSFGGDAQADEGQARKSQLQRRFKEFLRQYRVGTDRTGFTFKYRDELKRHYNLGEYWIEVEMEDLASFDEDLADYLYKQPAEHLQLLEEAAKEVADEVTRPRPSGEEVLQDIQVMLKSDASPSSIRSLKSDMMSHLVKIPGIIIAASAVRAKATRISIQCRSCRNTLTNIAMRPGLEGYALPRKCNTDQAGRPKCPLDPYFIMPDKCKCVDFQTLKLQELPDAVPHGEMPRHMQLYCDRYLCDKVVPGNRVTIMGIYSIKKFGLTTSRGRDRVGVGIRSSYIRVLGIQVDTDGSGRSFAGAVSPQEEEEFRRLAALPNVYEVISKSIAPSIFGGTDMKKAIACLLFGGSRKRLPDGLTRRGDINLLMLGDPGTAKSQLLKFVEKCSPIGVYTSGKGSSAAGLTASVMRDPSSRNFIMEGGAMVLADGGVVCIDEFDKMREDDRVAIHEAMEQQTISIAKAGITTTLNSRCSVLAAANSVFGRWDETKGEDNIDFMPTILSRFDMIFIVKDEHNEERDVMLAKHVITLHVSALTQTQAVEGEIDLAKLKKFIAYCRVKCGPRLSAEAAEKLKNRYIIMRSGARQHERDSDRRSSIPITVRQLEAIVRIAEALSKMKLQPFATEADVEEALRLFQVSTLDAALSGTLSGVEGFTSQEDQEMLSRIEKQLKRRFAIGSQVSEHSIIKDFTKQKYPEHAIHKVLQLMLRRGEIQHRMQRKVLYRLK

The remaining lines, values behind:

B2: ATP-dependent 6-phosphofructokinase (protein, UniProt P08237 1-780)
chain: MTHEEHHAAKTLGIGKAIAVLTSGGDAQGMNAAVRAVVRVGIFTGARVFFVHEGYQGLVDGGDHIKEATWESVSMMLQLGGTVIGSARCKDFREREGRLRAAYNLVKRGITNLCVIGGDGSLTGADTFRSEWSDLLSDLQKAGKITDEEATKSSYLNIVGLVGSIDNDFCGTDMTIGTDSALHRIMEIVDAITTTAQSHQRTFVLEVMGRHCGYLALVTSLSCGADWVFIPECPPDDDWEEHLCRRLSETRTRGSRLNIIIVAEGAIDKNGKPITSEDIKNLVVKRLGYDTRVTVLGHVQRGGTPSAFDRILGSRMGVEAVMALLEGTPDTPACVVSLSGNQAVRLPLMECVQVTKDVTKAMDEKKFDEALKLRGRSFMNNWEVYKLLAHVRPPVSKSGSHTVAVMNVGAPAAGMNAAVRSTVRIGLIQGNRVLVVHDGFEGLAKGQIEEAGWSYVGGWTGQGGSKLGTKRTLPKKSFEQISANITKFNIQGLVIIGGFEAYTGGLELMEGRKQFDELCIPFVVIPATVSNNVPGSDFSVGADTALNTICTTCDRIKQSAAGTKRRVFIIETMGGYCGYLATMAGLAAGADAAYIFEEPFTIRDLQANVEHLVQKMKTTVKRGLVLRNEKCNENYTTDFIFNLYSEEGKGIFDSRKNVLGHMQQGGSPTPFDRNFATKMGAKAMNWMSGKIKESYRNGRIFANTPDSGCVLGMRKRALVFQPVAELKDQTDFEHRIPKEQWWLKLRPILKILAKYEIDLDTSDHAHLEHITRKRSGEAAV
binding [2]: binds

B4: DNA replication licensing factor MCM3 (protein, UniProt P25205 1-808)
chain: MAGTVVLDDVELREAQRDYLDFLDDEEDQGIYQSKVRELISDNQYRLIVNVNDLRRKNEKRANRLLNNAFEELVAFQRALKDFVASIDATYAKQYEEFYVGLEGSFGSKHVSPRTLTSCFLSCVVCVEGIVTKCSLVRPKVVRSVHYCPATKKTIERRYSDLTTLVAFPSSSVYPTKDEENNPLETEYGLSVYKDHQTITIQEMPEKAPAGQLPRSVDVILDDDLVDKAKPGDRVQVVGTYRCLPGKKGGYTSGTFRTVLIACNVKQMSKDAQPSFSAEDIAKIKKFSKTRSKDIFDQLAKSLAPSIHGHDYVKKAILCLLLGGVERDLENGSHIRGDINILLIGDPSVAKSQLLRYVLCTAPRAIPTTGRGSSGVGLTAAVTTDQETGERRLEAGAMVLADRGVVCIDEFDKMSDMDRTAIHEVMEQGRVTIAKAGIHARLNARCSVLAAANPVYGRYDQYKTPMENIGLQDSLLSRFDLLFIMLDQMDPEQDREISDHVLRMHRYRAPGEQDGDAMPLGSAVDILATDDPNFSQEDQQDTQIYEKHDNLLHGTKKKKEKMVSAAFMKKYIHVAKIIKPVLTQESATYIAEEYSRLRSQDSMSSDTARTSPVTARTLETLIRLATAHAKARMSKTVDLQDAEEAVELVQYAYFKKVLEKEKKRKKRSEDESETEDEEEKSQEDQEQKRKRRKTRQPDAKDGDSYDPYDFSDTEEEMPQVHTPKTADSQETKESQKVELSESRLKAFKVALLDVFREAHAQSIGMNRLTESINRDSEEPFSSVEIQAALSKMQDDNQVMVSEGIIFLI
binding [1]: binds

B5: 14-3-3 protein theta, P27348 1-245 (protein)
chain: MEKTELIQKAKLAEQAERYDDMATCMKAVTEQGAELSNEERNLLSVAYKNVVGGRRSAWRVISSIEQKTDTSDKKLQLIKDYREKVESELRSICTTVLELLDKYLIANATNPESKVFYLKMKGDYFRYLAEVACGDDRKQTIDNSQGAYQEAFDISKKEMQPTHPIRLGLALNFSVFYYEILNNPELACTLAKTAFDEAIAELDTLNEDSYKDSTLIMQLLRDNLTLWTSDSAGEECDAAEGAEN
binding [3]: binds
